# Results: paper PMC13053910, “Covalent Protein Inhibitors via Tyrosine and Tryptophan Conjugation with Cyclic Imine Mannich Electrophiles” (Angewandte Chemie (International Ed. in English), 2026)
# Test: Reaction of cyclic imine Mannich or sulfur fluoride electrophiles with Ac-Tyr-NHMe (HPLC, LC/MS)
# Assay type: physicochemical
# Conditions: electrophile 5 mM, Ac-Tyr-NHMe 100 mM, PBS pH 7, 37 °C
# Protocol: To identify an appropriate warhead, we synthesized or purchased a collection of cyclic imines and incubated them with N‐acetyl‐L‐tyrosine methylamide (Ac‐Tyr‐NHMe) in PBS pH 7 at 37 °C (Table 1). The reactivity was quantified by UV integration on HPLC with LC/MS confirmation of product identity (Figure S1). […] The hydrolysis kinetics of imine 2 were characterized at pD 6 and 7.5 by NMR (Figure S3). […] The Mannich reaction mechanism involves a charged iminium intermediate, and the reaction is frequently catalyzed by Bronsted acids.^[ [36], [37] ^]
# Figure 2 Second‐order rate constants for select cyclic imines and a sulfonyl fluoride with aromatic nucleophiles. Reactions were conducted under pseudo‐first‐order conditions with an excess of one reactant, as indicated. The reduction in the concentration of the limiting reactant was measured at various time points by HPLC analysis.
# Figure S2: Second order rate constant determination. Reaction of (A) imine 1 (5 mM) with N-Ac-Tyr-NHMe (100 mM) at 37 °C or (B) at R.T. (C) imine 2 (5 mM) with N-Ac-Tyr-NHMe (100 mM) at 37 °C (D) imine 1 (5 mM) with indole-3-butyrate (100 mM) at 37 °C (E) imine 1 (10 mM) with 1 mM 1H-pyrrole-1-propionate (F) iminium 5 (5 mM) with N-Ac-Tyr-NHMe (100 mM) at 37 °C (G) imine 4 (5 mM) with N-Ac-Tyr-NHMe (100 mM) at 37 °C. (H) imine 11 (5 mM) with N-Ac-Tyr-NHMe (100 mM) at 37 °C. (I) imine 13 (5 mM) with N-Ac-Tyr-NHMe (100 mM) at 37 °C.
# 5.1 General procedure for determination of second order rate constants N-acetyl-l-tyrosine methyl amide (Ac-Tyr-NHMe) (100 mM) was incubated with 5 mM imine 1 in PBS (pH 7) at 37 °C or R.T..
SMILES,reactivity (in words),other results
O=c1cnc2ccccc2o1 [compound 3],–,"reactivity: % conv. in 30 mins (30 mins, competing hydrolysis): 30% conv. in 30 mins ^b)"
C1=NCCc2c1[nH]c1ccccc21 [compound 6],very weak,reactivity: % conv. in 72 h (72 h): 30% conv. in 72 h
COc1ccc2c3c([nH]c2c1)C(C)=NCC3 [compound 7],no reactivity,–
C1=NCCc2ccccc21 [compound 8],limited,reactivity: % conv. in 24 h (24 h): 5% conv. in 24 h
CC1=NCCC1 [compound 9],no and no reactivity,–
O=C1NCC=Nc2ccccc21 [compound 10],no and no reactivity,–
O=S1(=O)C=Nc2ccccc2O1 [compound 12],not stable in aqueous solution,–
"O=C(O)c1ccc(OS(=O)(=O)F)cc1 [compound 14, reference compound]",low reactivity,–
